Results are given in words; binding and its absence hold for the method and conditions named. In cells and extracts the contact can be indirect.
Molecular target: GAPDH (human (endogenous in MDS-L)) (UniProt P04406)
Test: co-IP; MDS-L cells treated with 0.2% Triton X-100 for 5 min and washed; whole cell lysates, equal amounts of protein, immunoprecipitated with α-tubulin, IgG and GAPDH antibodies; co-immunoprecipitated NF-κB detected by Western blotting with an anti-p65 antibody; methods name treatment of cells with GNA, paclitaxel and TN16 for 16 h

Amino acid sequences for entries named in this document (tags omitted).
UniProt P04406: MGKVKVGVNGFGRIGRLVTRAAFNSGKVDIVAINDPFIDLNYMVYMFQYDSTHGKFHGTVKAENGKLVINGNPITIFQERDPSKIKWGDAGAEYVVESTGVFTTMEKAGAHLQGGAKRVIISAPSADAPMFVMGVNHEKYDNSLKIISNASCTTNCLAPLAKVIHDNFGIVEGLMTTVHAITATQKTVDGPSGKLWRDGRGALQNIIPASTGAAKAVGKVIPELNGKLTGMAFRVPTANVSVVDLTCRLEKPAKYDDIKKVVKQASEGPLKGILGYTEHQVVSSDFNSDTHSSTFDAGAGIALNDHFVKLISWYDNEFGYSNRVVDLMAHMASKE
UniProt Q04206: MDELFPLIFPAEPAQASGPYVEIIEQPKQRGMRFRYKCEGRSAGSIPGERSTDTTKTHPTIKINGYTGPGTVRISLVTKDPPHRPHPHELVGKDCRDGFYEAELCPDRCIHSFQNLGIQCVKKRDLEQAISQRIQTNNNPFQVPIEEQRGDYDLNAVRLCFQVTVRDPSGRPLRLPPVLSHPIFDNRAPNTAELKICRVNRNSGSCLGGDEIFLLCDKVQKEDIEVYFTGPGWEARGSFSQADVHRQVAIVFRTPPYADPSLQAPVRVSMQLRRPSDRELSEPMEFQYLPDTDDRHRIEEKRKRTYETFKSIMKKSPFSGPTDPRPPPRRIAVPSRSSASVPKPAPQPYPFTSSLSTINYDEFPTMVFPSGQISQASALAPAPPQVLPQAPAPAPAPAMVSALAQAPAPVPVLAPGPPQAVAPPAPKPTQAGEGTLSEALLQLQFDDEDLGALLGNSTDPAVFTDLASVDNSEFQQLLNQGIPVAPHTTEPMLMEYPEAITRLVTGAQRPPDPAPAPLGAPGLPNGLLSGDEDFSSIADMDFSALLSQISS

binding: no binding
Substance: NF-κB subunit p65 (RelA) (from UniProt Q04206 1-551)

Source: publication PMC11572293
